Our source for the binding values is PMC8891561.

The target of test [1] is T1, HA-ERp44 (pcDNA3.1-HA-ERp44) (UniProt Q9BS26).
T1 sequence: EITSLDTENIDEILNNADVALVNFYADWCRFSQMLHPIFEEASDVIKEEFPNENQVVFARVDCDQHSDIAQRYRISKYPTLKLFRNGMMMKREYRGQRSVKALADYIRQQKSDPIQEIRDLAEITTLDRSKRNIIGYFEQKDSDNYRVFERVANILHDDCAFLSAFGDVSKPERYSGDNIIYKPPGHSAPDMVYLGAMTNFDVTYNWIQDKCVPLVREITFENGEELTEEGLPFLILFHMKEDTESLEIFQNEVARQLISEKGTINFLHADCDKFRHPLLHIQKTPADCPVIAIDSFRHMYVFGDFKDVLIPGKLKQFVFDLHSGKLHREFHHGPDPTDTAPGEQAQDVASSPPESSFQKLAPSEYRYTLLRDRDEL
The experiment in a line: co-IP; exogenous; 293T cells co-transfected with VEGFA165 and ERp44 expression vectors; cells exposed to 1.2 mM DSP in PBS 30 min at RT before lysis in NP-40 buffer; anti-HA or anti-myc antibody agarose overnight at 4 C; eluted with 0.2 M glycine pH 2.5; Western blot. Background: A western blot detects proteins with antibodies after separation by electrophoresis.

Test [2] addresses T2, HA-C29S (pcDNA3.1-HA-C29S, C29S mutant of ERp44) (UniProt Q9BS26).
T2 sequence: T1 sequence with C29S
The description is as above.

Test [3] has as its target T3, ERp44 (endogenous, mouse heart) (mouse (endogenous in heart tissue)) (UniProt Q9D1Q6).
T3 sequence: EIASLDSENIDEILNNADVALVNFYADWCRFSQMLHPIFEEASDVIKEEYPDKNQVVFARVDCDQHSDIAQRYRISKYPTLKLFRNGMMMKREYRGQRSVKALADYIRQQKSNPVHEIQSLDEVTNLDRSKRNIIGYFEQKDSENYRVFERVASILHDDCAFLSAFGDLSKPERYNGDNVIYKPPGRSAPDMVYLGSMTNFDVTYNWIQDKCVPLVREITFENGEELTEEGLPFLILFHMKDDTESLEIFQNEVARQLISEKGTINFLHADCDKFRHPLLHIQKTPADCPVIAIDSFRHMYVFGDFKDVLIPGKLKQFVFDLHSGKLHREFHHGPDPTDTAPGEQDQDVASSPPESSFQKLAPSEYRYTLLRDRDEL
The test is described as follows: co-IP; endogenous; mouse heart tissue at different stages of development lysed in NP-40 buffer (PBS, 100 mM NaCl, 10 mM NEM, 0.5% NP-40, 10 mM Tris-HCl 7.4); ERp44 antibody 5 h at 4 C, protein-A/G PLUS-agarose; Western blot.

Residue numbers refer to the chain shown, from its start. These are yes or no findings as the source states them, for the method shown. In cells and extracts the contact can be indirect. For some of these results: Binding can be weak; no strength is given. For some of these results: Where a sequence is shown, tags or fusion partners need not be part of it.

For “N101Y-myc (pcDNA4-N101Y-myc, N101Y mutant of VEGFA165) (from UniProt P15692-4)”, the binding result in test [1] was “binds”.

In the case of “VEGFA165-myc (pcDNA4-hVEGFA165-myc) (from UniProt P15692-4)”, the binding result in test [2] is reported as “no binding”; in test [1], “binds”.

With “VEGFA (endogenous, mouse heart) (from UniProt Q00731-2)”, the binding result in test [3] is given as “binds”.
